Experimental findings from paper doi:10.1101/2022.12.29.522265 are described below.

This assay deals with T1, Bqt3, full-length, fused to the DNA-binding domain (S. pombe) (UniProt O74510).
T1 sequence: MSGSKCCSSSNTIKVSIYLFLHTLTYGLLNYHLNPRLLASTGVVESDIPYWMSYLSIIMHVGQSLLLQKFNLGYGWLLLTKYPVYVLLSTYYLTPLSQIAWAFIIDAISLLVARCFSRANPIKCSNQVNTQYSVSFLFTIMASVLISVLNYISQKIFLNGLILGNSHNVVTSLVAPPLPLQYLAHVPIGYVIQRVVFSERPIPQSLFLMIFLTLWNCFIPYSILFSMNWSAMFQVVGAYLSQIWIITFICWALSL
Put plainly: two-hybrid.

No constants are given. Whether binding was seen depends on the method and setting. Some results given as binding are weak or reduced against the parent protein; the word gives no strength. Tags and fused reporters may be left off the sequences shown.

B1: GFP-Bqt4C^414-432 (TMD alone) (domain or fragment, UniProt O60158 414-432)
chain: ALGGIAIGLGVGAILPFLF
Regarding B1, the binding entry is “binds”.

B2: GFP-Bqt4C^369-425 (domain or fragment, UniProt O60158 369-425)
chain: SSPKSKKRSREDFEENEDYNAMVPVKRSRITKLESEVYYEKRKVRALGGIAIGLGVG
For B2, the binding entry is recorded as “no binding”.
